# Measurements reported in PubChem BioAssay AID743121 (NCATS, 2013).
# Assay: 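Knock-downs that sensitise breast cancer cells to camptothecin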 (primary screen)
# System: MDA-MB-231 cells, a human breast cancer line
# Reagents: single siRNA against human genes, 20 nM siRNA (0.8 pmol per well)
# Time to read-out: 120 h (drug added 48 h after transfection, read 72 h later)
# Conditions: camptothecin 20 nM (about EC30) for 72 h; vehicle 0.1% DMSO in parallel plates
# Read-out: 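CellTiter-Glo ATP signal, scaled to control siRNA as percent viability; sensitisation given as log2 of untreated divided by camptothecin-treated viability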
# Scale: log2 vehicle/camptothecin viability: higher = stronger sensitisation to camptothecin; viability with camptothecin and viability without drug: higher = more viable cells
# Active means: 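Each gene scored by redundant siRNA activity (RSA) over its individual siRNA ratios; a gene is called active at p < 0.001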
# This is an unselected part of about 26,000 reagents tested. Of all reagents, 167 (0.63%) are marked active. 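Calls are per gene from RSA p-values that are not deposited; an individual active-marked siRNA can sensitise only weakly.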 Unmarked entries are inactive. The numbers tell different reagents against one gene apart. No sequences are given here.
gene knocked down,siRNA no.,log2 vehicle/camptothecin viability,viability with camptothecin (% of control),viability without drug (% of control)
P2RX1,1,0.467,31,42.8
P2RX1,2,-0.472,91.3,65.8
P2RX1,3,-0.19,85.2,74.7
TSNARE1,1,-0.278,84.2,69.5
TSNARE1,2,-1.72,42,12.7
TSNARE1,3,0.0706,102,107
TSNARE1,4,-0.0296,73.9,72.4
ADAMDEC1,1,-0.265,84.4,70.2
ADAMDEC1,2,-0.547,61.1,41.8
ADAMDEC1,3,0.245,84.7,100
EDF1,1,-0.345,71.1,56
EDF1,2,-0.352,60.8,47.6
EDF1,3,0.186,61.1,69.5
ITGB6,1,-0.0913,103,96.3
ITGB6,2,0.35,62.6,79.7
ITGB6,3,0.103,48.4,52
IRAK1BP1,1,-0.032,82.6,80.8
IRAK1BP1,2,-0.334,93.2,74
IRAK1BP1,3,-0.279,107,88
IRAK1BP1,4,-0.416,102,76.8
LPAR5,1,-0.568,95.6,64.5
LPAR5,2,-0.248,7.09,5.97
LPAR5,3,-0.48,74.3,53.3
LPAR5,4,-0.156,85.2,76.4

Records above whose gene name starts with I or i (7):
gene knocked down,siRNA no.,log2 vehicle/camptothecin viability,viability with camptothecin (% of control),viability without drug (% of control)
ITGB6,1,-0.0913,103,96.3
ITGB6,2,0.35,62.6,79.7
ITGB6,3,0.103,48.4,52
IRAK1BP1,1,-0.032,82.6,80.8
IRAK1BP1,2,-0.334,93.2,74
IRAK1BP1,3,-0.279,107,88
IRAK1BP1,4,-0.416,102,76.8

The list goes on.
gene knocked down,siRNA no.,log2 vehicle/camptothecin viability,viability with camptothecin (% of control),viability without drug (% of control)
FOXRED2,1,-0.511,84.7,59.4
FOXRED2,2,-0.142,83.2,75.4
FOXRED2,3,0.314,49.3,61.3
SCN3A,1,0.158,87.9,98.1
SCN3A,2,0.513,59.2,84.5
SCN3A,3,-0.724,94.9,57.4
SCN3A,4,-0.0446,73.2,71
TFR2,1,-0.42,69.3,51.8
TFR2,2,-0.028,104,102
TFR2,3,-0.14,41.5,37.7
PSENEN,1,0.109,69.6,75.1
PSENEN,2,-0.0751,107,101
PSENEN,3,-0.281,58.6,48.3
PTPN13,1,-0.232,91,77.4
PTPN13,2,0.0189,67.3,68.1
PTPN13,3,-0.103,102,95.3
PTPN13,4,-0.306,112,91
SETDB2,1,-0.206,93,80.6
SETDB2,2,-0.00204,86.5,86.3
SETDB2,3,0.0208,99.9,101
SETDB2,4,-0.236,84.5,71.7
CDC14B,1,-0.0834,84.9,80.2
CDC14B,2,-0.0445,67.6,65.5
CDC14B,3,-0.235,86.8,73.8
CDC14B,4,-0.193,99.9,87.4
